# Data: the supplement of paper PMC8728848
# The list shows a part of the results.
# Tests used:
# Assay in all cases: glycan array binding signal (z-score within array); higher = stronger binding
# Conditions in all cases: glycan notation: IUPAC condensed, linker removed
# [1] = target: Neu5Ac(a2-3)[GalNAc(b1-4)]Gal(b1-4)GlcNAc(b1-3)GalNAc
# How it was run: (§1)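 From the Consortium for Functional Glycomics database, 3228 arrays were curated, keeping only those whose protein sequence was available. Binding is given as a within-array Z-score averaged across arrays sharing a protein sequence and across linkers. Negative Z-scores can be read as non-binding.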
# [2] = target: Neu5Ac(a2-3)[Neu5Ac(a2-6)]GalNAc
# How it was run: as §1
# Neu5Ac(a2-6)Gal = target: Neu5Ac(a2-6)Gal
# How it was run: as §1
# [3] = target: Neu5Ac(a2-6)Gal(b1-3)GlcNAc(b1-3)[Gal(b1-4)GlcNAc(b1-6)]Gal(b1-4)Glc
# How it was run: as §1
# Neu5Ac(a2-6)Gal(b1-4)Glc = target: Neu5Ac(a2-6)Gal(b1-4)Glc
# How it was run: as §1
# [4] = target: Neu5Ac(a2-6)Gal(b1-4)GlcNAc
# How it was run: as §1
# [5] = target: Neu5Ac(a2-6)Gal(b1-4)GlcNAc(b1-2)Man(a1-3)Man(b1-4)GlcNAc(b1-4)GlcNAc
# How it was run: as §1
# [6] = target: Neu5Ac(a2-6)Gal(b1-4)GlcNAc(b1-2)Man(a1-3)[Gal(b1-4)GlcNAc(b1-2)Man(a1-6)]Man(b1-4)GlcNAc(b1-4)GlcNAc
# How it was run: as §1
# [7] = target: Neu5Ac(a2-6)Gal(b1-4)GlcNAc(b1-2)Man(a1-3)[GlcNAc(b1-2)Man(a1-6)]Man(b1-4)GlcNAc(b1-4)GlcNAc
# How it was run: as §1
# [8] = target: Neu5Ac(a2-6)Gal(b1-4)GlcNAc(b1-2)Man(a1-3)[GlcNAc(b1-2)Man(b1-4)GlcNAc(b1-2)Man(a1-6)]Man(b1-4)GlcNAc(b1-4)GlcNAc
# How it was run: as §1
# [9] = target: Neu5Ac(a2-6)Gal(b1-4)GlcNAc(b1-2)Man(a1-3)[Man(a1-6)]Man(b1-4)GlcNAc(b1-4)GlcNAc
# How it was run: as §1
# [10] = target: Neu5Ac(a2-6)Gal(b1-4)GlcNAc(b1-2)Man(a1-3)[Neu5Ac(a2-6)Gal(b1-4)GlcNAc(b1-2)Man(a1-6)]Man(b1-4)GlcNAc(b1-4)GlcNAc
# How it was run: as §1
# [11] = target: Neu5Ac(a2-6)Gal(b1-4)GlcNAc(b1-2)Man(a1-6)Man(b1-4)GlcNAc(b1-4)GlcNAc
# How it was run: as §1
# [12] = target: Neu5Ac(a2-6)Gal(b1-4)GlcNAc(b1-2)Man(a1-6)[Gal(b1-4)GlcNAc(b1-2)Man(a1-3)]Man(b1-4)GlcNAc(b1-4)GlcNAc
# How it was run: as §1
# [13] = target: Neu5Ac(a2-6)Gal(b1-4)GlcNAc(b1-2)Man(a1-6)[GlcNAc(b1-2)Man(a1-3)]Man(b1-4)GlcNAc(b1-4)GlcNAc
# How it was run: as §1
# [14] = target: Neu5Ac(a2-6)Gal(b1-4)GlcNAc(b1-2)Man(a1-6)[Man(a1-3)]Man(b1-4)GlcNAc(b1-4)GlcNAc
# How it was run: as §1
# [15] = target: Neu5Ac(a2-6)Gal(b1-4)GlcNAc(b1-3)Gal(b1-3)GlcNAc
# How it was run: as §1
# [16] = target: Neu5Ac(a2-6)Gal(b1-4)GlcNAc(b1-3)Gal(b1-4)GlcNAc
# How it was run: as §1
# [17] = target: Neu5Ac(a2-6)Gal(b1-4)GlcNAc(b1-3)Gal(b1-4)GlcNAc(b1-3)Gal(b1-4)GlcNAc
# How it was run: as §1
# [18] = target: Neu5Ac(a2-6)Gal(b1-4)GlcNAc(b1-3)Gal(b1-4)[Fuc(a1-3)]GlcNAc(b1-3)Gal(b1-4)[Fuc(a1-3)]GlcNAc
# How it was run: as §1
# [19] = target: Neu5Ac(a2-6)Gal(b1-4)GlcNAc(b1-3)GalNAc
# How it was run: as §1
# [20] = target: Neu5Ac(a2-6)Gal(b1-4)GlcNAc6S
# How it was run: as §1
# Neu5Ac(a2-6)GalNAc = target: Neu5Ac(a2-6)GalNAc
# How it was run: as §1
# [21] = target: Neu5Ac(a2-6)GalNAc(b1-4)GlcNAc
# How it was run: as §1
# [22] = target: Neu5Ac(a2-6)GlcNAc(b1-4)GlcNAc
# How it was run: as §1
# [23] = target: Neu5Ac(a2-6)GlcNAc(b1-4)GlcNAc(b1-4)GlcNAc
# How it was run: as §1
# Neu5Ac(a2-8)Neu5Ac = target: Neu5Ac(a2-8)Neu5Ac
# How it was run: as §1
# [24] = target: Neu5Ac(a2-8)Neu5Ac(a2-3)Gal(b1-3)GalNAc(b1-4)[Neu5Ac(a2-8)Neu5Ac(a2-3)]Gal(b1-4)Glc
# How it was run: as §1
# [25] = target: Neu5Ac(a2-8)Neu5Ac(a2-3)Gal(b1-4)Glc
# How it was run: as §1
# [26] = target: Neu5Ac(a2-8)Neu5Ac(a2-3)[Gal(b1-3)GalNAc(b1-4)]Gal(b1-4)Glc
# How it was run: as §1
# [27] = target: Neu5Ac(a2-8)Neu5Ac(a2-3)[GalNAc(b1-4)]Gal(b1-4)Glc
# How it was run: as §1
# [28] = target: Neu5Ac(a2-8)Neu5Ac(a2-8)Neu5Ac
# How it was run: as §1
# [29] = target: Neu5Ac(a2-8)Neu5Ac(a2-8)Neu5Ac(a2-3)Gal(b1-4)Glc
# How it was run: as §1
# [30] = target: Neu5Ac(a2-8)Neu5Ac(a2-8)Neu5Ac(a2-3)[GalNAc(b1-4)]Gal(b1-4)Glc
# How it was run: as §1
# [31] = target: Neu5Ac(a2-8)Neu5Ac(a2-8)Neu5Ac(a2-8)Neu5Ac(a2-3)[GalNAc(b1-4)]Gal(b1-4)Glc
# How it was run: as §1
# [32] = target: Neu5Ac(b2-6)Gal(b1-4)GlcNAc
# How it was run: as §1
# Neu5Ac(b2-6)GalNAc = target: Neu5Ac(b2-6)GalNAc
# How it was run: as §1
# [33] = target: Neu5Ac9Ac(a2-3)Gal(b1-3)GlcNAc
# How it was run: as §1
binder,measurement,setting,value
"CD72 ectodomain (Homo sapiens), P21854 (protein) RYLQVSQQLQQTNRVLEVTNSSLRQQLRLKITQLGQSAEDLQGSRRELAQSQEALQVEQRAHQAAEGQLQACQADRQKTKETLQSEEQQRRALEQKLSNMENRLKPFFTCGSADTCCPSGWIMHQKSCFYISLTSKNWQESQKQCETLSSKLATFSEIYPQSHSYYFLNSLLPNGGSGNSYWTGLSSNKDWKLTDDTQRTRTYAQSSKCNKVHKTWSWWTLESESCRSSLPYICEMTAFRFPD",glycan array binding signal (z-score),[1],-0.312
same,glycan array binding signal (z-score),[2],0.913
same,glycan array binding signal (z-score),Neu5Ac(a2-6)Gal,0.052
same,glycan array binding signal (z-score),[3],0.399
same,glycan array binding signal (z-score),Neu5Ac(a2-6)Gal(b1-4)Glc,-0.503
same,glycan array binding signal (z-score),[4],-0.323
same,glycan array binding signal (z-score),[5],-0.04
same,glycan array binding signal (z-score),[6],-0.942
same,glycan array binding signal (z-score),[7],0.516
same,glycan array binding signal (z-score),[8],-0.452
same,glycan array binding signal (z-score),[9],0.787
same,glycan array binding signal (z-score),[10],0.219
same,glycan array binding signal (z-score),[11],-0.717
same,glycan array binding signal (z-score),[12],0.833
same,glycan array binding signal (z-score),[13],0.781
same,glycan array binding signal (z-score),[14],-0.831
same,glycan array binding signal (z-score),[15],-0.438
same,glycan array binding signal (z-score),[16],0.243
same,glycan array binding signal (z-score),[17],0.371
same,glycan array binding signal (z-score),[18],-0.002
same,glycan array binding signal (z-score),[19],-0.502
same,glycan array binding signal (z-score),[20],-0.391
same,glycan array binding signal (z-score),Neu5Ac(a2-6)GalNAc,-0.291
same,glycan array binding signal (z-score),[21],-0.489
same,glycan array binding signal (z-score),[22],-1.1
same,glycan array binding signal (z-score),[23],-0.102
same,glycan array binding signal (z-score),Neu5Ac(a2-8)Neu5Ac,0.663
same,glycan array binding signal (z-score),[24],0.757
same,glycan array binding signal (z-score),[25],0.194
same,glycan array binding signal (z-score),[26],0.027
same,glycan array binding signal (z-score),[27],-0.033
same,glycan array binding signal (z-score),[28],0.619
same,glycan array binding signal (z-score),[29],-0.33
same,glycan array binding signal (z-score),[30],-1.1
same,glycan array binding signal (z-score),[31],-0.171
same,glycan array binding signal (z-score),[32],0.158
same,glycan array binding signal (z-score),Neu5Ac(b2-6)GalNAc,-0.169
same,glycan array binding signal (z-score),[33],1.21

# Some of the entries above in another layout:
binder	measurement	setting	value
CD72 ectodomain (Homo sapiens), P21854 (protein) RYLQVSQQLQQTNRVLEVTNSSLRQQLRLKITQLGQSAEDLQGSRRELAQSQEALQVEQRAHQAAEGQLQACQADRQKTKETLQSEEQQRRALEQKLSNMENRLKPFFTCGSADTCCPSGWIMHQKSCFYISLTSKNWQESQKQCETLSSKLATFSEIYPQSHSYYFLNSLLPNGGSGNSYWTGLSSNKDWKLTDDTQRTRTYAQSSKCNKVHKTWSWWTLESESCRSSLPYICEMTAFRFPD	glycan array binding signal (z-score)	[2]	0.913
same	glycan array binding signal (z-score)	[22]	-1.1
same	glycan array binding signal (z-score)	[25]	0.194
